Experimental data: paper PMC7819943, “Rice protein-binding microarrays: a tool to detect cis-acting elements near promoter regions in rice”
The other results are listed elsewhere or left out.

By UniProt entry, the sequences of proteins in these tests, tags left out.
UniProt Q0JBA9, entry or part of it: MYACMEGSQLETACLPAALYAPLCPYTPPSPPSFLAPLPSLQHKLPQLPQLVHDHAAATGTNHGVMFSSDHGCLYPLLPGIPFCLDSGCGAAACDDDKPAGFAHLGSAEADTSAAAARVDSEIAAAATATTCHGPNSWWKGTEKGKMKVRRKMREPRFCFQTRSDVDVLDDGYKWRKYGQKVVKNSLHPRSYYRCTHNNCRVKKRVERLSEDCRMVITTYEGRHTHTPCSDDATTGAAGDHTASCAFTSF

Molecular target: OsWRKY34 (Oryza sativa, UniProt Q0JBA9 1-250)
Assay: protein-binding microarray (RPBM); PBS, 2% BSA, 51.3 ng/ul salmon testes DNA, 50 uM zinc acetate, 200 nM TF, 25 C, 1 h; high values mean tight binding
Settings: protein: recombinant; tags: N-terminal polyhistidine and DsRed monomer fusion (pET32a); label: CyDye5-dUTP incorporated in the synthesized complementary strand; 3' TTTTT single-stranded linker to array surface; dsDNA, one strand shown
Summary of the method: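 Polyhistidine-tagged DsRed fusions of transcription factors, joined at the N-terminus, were expressed in E. coli BL21-CodonPlus and isolated on Ni–NTA. They were incubated at 200 nM for 1 h at 25 °C on a custom Agilent array, double-stranded and BSA-blocked, in PBS with 2% BSA, salmon testes DNA and 50 µM zinc acetate. The binding signal is per-feature fluorescence intensity (arbitrary units) read on an Axon 4000B scanner after washing.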

Sequence | binding signal
GTCAAACATGTGCTAAAAAGTCAACGGCGTCAAACATTTTCGGAGTCACCTAGTGCAG | 13300 fluorescence intensity (a.u.)
CTTCTTCCACTTGAAGCTTTTTCTCTCTTGGTCTTATCCTCGGAGTCACCTAGTGCAG | 9690 fluorescence intensity (a.u.)
TCGCTTTCCATCCTTCTCATGCTGTCAATTTATCAGTCAACGGAGTCACCTAGTGCAG | 11300 fluorescence intensity (a.u.)
GTCCGCTTCCATTGGGAGCGCGGCTACTGGCTGGGTTTACCGGAGTCACCTAGTGCAG | 8770 fluorescence intensity (a.u.)
TAGTCAATTACCACTTCGTCTCTGCATATGTACGTAAAACCGGAGTCACCTAGTGCAG | 9820 fluorescence intensity (a.u.)
ATCGTCCTCTGCACCTGCACACATCATCACTGGGACAACCCGGAGTCACCTAGTGCAG | 8140 fluorescence intensity (a.u.)
CTCCTACTGCCTACCGCCGACGCAGAACTCCGTGGGTTACCGGAGTCACCTAGTGCAG | 8210 fluorescence intensity (a.u.)
TTGGTAGTATTGCATGTTGGCTTATTTATGAATCGTGTGACGGAGTCACCTAGTGCAG | 8490 fluorescence intensity (a.u.)
GACTTAACTATGCAAACAGCTTATAGAATATTTCCATGGTCGGAGTCACCTAGTGCAG | 8090 fluorescence intensity (a.u.)
GCTTGTTTGTCAACTTGGCATTAATCACATTAGTTATATTCGGAGTCACCTAGTGCAG | 9110 fluorescence intensity (a.u.)
AACCACCTCACCGCCGACGACCTCATCCTCGTCGGCGCCGCGGAGTCACCTAGTGCAG | 8990 fluorescence intensity (a.u.)
CTGTATTATGGTGCTTTCACATTTTTTTTCTAGTCTGCCACGGAGTCACCTAGTGCAG | 8370 fluorescence intensity (a.u.)
AAAGCTGCGATTTTTTTTTCCTTCTCTCGCCGCCCGCGCGCGGAGTCACCTAGTGCAG | 8780 fluorescence intensity (a.u.)
AGTTACTCTTATTGTTTACTGGTTCATTTTGTTTCTTCTTCGGAGTCACCTAGTGCAG | 11900 fluorescence intensity (a.u.)
GGCACCGTATCGCGTTCACAATTTTTCGCGCAGACCTCCACGGAGTCACCTAGTGCAG | 8600 fluorescence intensity (a.u.)
AATTTTTGTGTGCAGCTGACATGTGGGGCCACGCTTTTTACGGAGTCACCTAGTGCAG | 11500 fluorescence intensity (a.u.)
CACATCCTCATCCCTGTGAACAAACACGTACATATACCCTCGGAGTCACCTAGTGCAG | 8690 fluorescence intensity (a.u.)
AGAATTGGATCAACCTTGTCACAGATCTGCCGTGTAGTTTCGGAGTCACCTAGTGCAG | 8410 fluorescence intensity (a.u.)
TTTGCCTTTTTTTTTTCTCTTGCTGTGGAGACCCGACCACCGGAGTCACCTAGTGCAG | 9170 fluorescence intensity (a.u.)
ACAATCTCCATAATTTTGATCTCCTATTAGTATCTCCTTACGGAGTCACCTAGTGCAG | 8680 fluorescence intensity (a.u.)
TGTTGCTGTTGCTGCTGTGAAGAGCCGGGAGGGGTTGACGCGGAGTCACCTAGTGCAG | 8700 fluorescence intensity (a.u.)

A stretch of the results above, as a working copy:
Sequence | binding signal
GACTTAACTATGCAAACAGCTTATAGAATATTTCCATGGTCGGAGTCACCTAGTGCAG | 8090 fluorescence intensity (a.u.)
GCTTGTTTGTCAACTTGGCATTAATCACATTAGTTATATTCGGAGTCACCTAGTGCAG | 9110 fluorescence intensity (a.u.)

Later entries.

Sequence | binding signal
CCCTTCACCACCGGTTTCGGTTCGTCGGCACCAAGCCCCTCGGAGTCACCTAGTGCAG | 8850 fluorescence intensity (a.u.)
GAGTGGAGAGGAAAGAGCAGGAGTTGACCATGAACTAGTCCGGAGTCACCTAGTGCAG | 8520 fluorescence intensity (a.u.)
CCGCCGCCGCCGCCGCCGACCTTGTCACTCCGGCCGCTGCCGGAGTCACCTAGTGCAG | 9390 fluorescence intensity (a.u.)
TTCTACCCCTCGCCGAGTCGCCGTATAAAACACCCAAACTCGGAGTCACCTAGTGCAG | 8050 fluorescence intensity (a.u.)
ATCCCAGCATTCAGCTATAACAGGCTTAATCACCTTTTCTCGGAGTCACCTAGTGCAG | 8440 fluorescence intensity (a.u.)
GGTTTAGTTCTCAAATTTTTCTTCAAACTTTTAACTTTTCCGGAGTCACCTAGTGCAG | 8330 fluorescence intensity (a.u.)
TTCCAGCCGATGTACACCCCAGCCAATATCTTCGCAGCCACGGAGTCACCTAGTGCAG | 9890 fluorescence intensity (a.u.)
TTGGGAGGGAGAGTGGTAAAGGGTGCTGGGGCTTTGGCTGCGGAGTCACCTAGTGCAG | 8840 fluorescence intensity (a.u.)
TTTTTATGGCTCCATGAAACCGTGATCATTCCTACAGTACCGGAGTCACCTAGTGCAG | 8590 fluorescence intensity (a.u.)
ACCATCCCCACCATTCCACCGCCTTTGCCTCCCCGACCTCCGGAGTCACCTAGTGCAG | 9650 fluorescence intensity (a.u.)
CGCCGCCACCATCACCTTCTTTGCCGCCAGAGCCAAGCCCCGGAGTCACCTAGTGCAG | 9660 fluorescence intensity (a.u.)
TCATCTCTGTAAACGTTCACACATATGTTATTTTTATAAACGGAGTCACCTAGTGCAG | 8340 fluorescence intensity (a.u.)
GTTTTGTTATAAGCGGTGGTTTTTTTTCTCGCGTTGAATACGGAGTCACCTAGTGCAG | 8310 fluorescence intensity (a.u.)
TAATAAACGGCATCAGTTTCTCTCTTACCACACCTCGTTTCGGAGTCACCTAGTGCAG | 9420 fluorescence intensity (a.u.)
ATGCCACTTAATTTTGACTTTTTTTTTTCTCAATTCATACCGGAGTCACCTAGTGCAG | 14400 fluorescence intensity (a.u.)
TTAGTAGTATATCGTCACCAATTATTGTAGTTAGCTCCACCGGAGTCACCTAGTGCAG | 9580 fluorescence intensity (a.u.)
GTACAATCTTTGTTACTCATGCTGTGTCCGGCTCTCTTCTCGGAGTCACCTAGTGCAG | 8230 fluorescence intensity (a.u.)
TTCATCACAGTCTAGTACTTCTTGCACCTGCATCATCTGCCGGAGTCACCTAGTGCAG | 9140 fluorescence intensity (a.u.)
CCATTTCTACTTCGCATCGACTATTTTATAAATTTATTTACGGAGTCACCTAGTGCAG | 8590 fluorescence intensity (a.u.)
CACTCCTTTTCCATCGCGCTAACTCCCGTCGGCTCCTCCACGGAGTCACCTAGTGCAG | 8110 fluorescence intensity (a.u.)
AGCCCATCTTGCTTTGTGTTGGCCCTCATCTACATGGAGACGGAGTCACCTAGTGCAG | 8150 fluorescence intensity (a.u.)
